Reference: patent publication US20040115614A1, “Electrophysiology assay methods” (priority 2002, published 2004)
At least one compound was matched to its structure with a doubt left.

Test system: voltage-gated sodium channels
Assay type: cell-based, human
Conditions: 100 nM, 30 min pre-incubation

## CC(C)C[C@@H]1NC(=O)[C@H](C)NC(=O)[C@H]([C@@H](C)O)NC(=O)[C@H](CCC(=O)O)NC(=O)[C@@H]2CCCN2C(=O)[C@H](C)NC(=O)[C@H](CCCCN)NC(=O)[C@@H]2CSSC[C@@H](C(=O)N[C@@H](CCC(N)=O)C(=O)N[C@@H](CCC(N)=O)C(=O)N[C@@H](Cc3cnc[nH]3)C(N)=O)NC(=O)[C@H](CCCNC(=N)N)NC(=O)[C@H](CCCNC(=N)N)NC(=O)[C@H](C)NC(=O)[C@H](CSSC[C@H](N)C(=O)N[C@@H](CC(N)=O)C(=O)N2)NC1=O [Apamin]
8 V train of 750 μs pulses, 8 pulses per s for 3 s
  Rate (% change/ s): 0.114 ± 0.012 % change/ s
8 V train, % of maximal depolarization with 50 mM KCl
  Amplitude (% max): 35.67 ± 0.641 % max
